Results taken from PubChem BioAssay AID2685 (National Center for Advancing Translational Sciences (NCATS), 2010).
The other results are listed elsewhere or left out. The main result of the screen is listed elsewhere. These columns were measured beside it and carry no call. The list favours compounds with an active or inconclusive main result. The note in brackets gives the kind of curve behind each potency; many fits are weak.

Assay: qHTS Assay for Lipid Storage Modulators in Drosophila S3 Cells;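 as to cell number change: cells counted by Cell Tracker Red CMTPX staining in the red channel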
Conditions: BODIPY lipid droplet fluorescence, 18-24 h; for cell number change: measured here: cell count max response, cells fed with added oleic acid
In short: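 Drosophila S3 cells got compounds at several concentrations plus oleic acid (400 uM solution). Laser-scanning cytometry with 488 nm excitation read lipid droplets at 500-530 nm and cells at 575-640 nm. Percent activity was relative to 20 uM Triacsin C.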

[1] = measured here: cell number channel AC50, cells fed with added oleic acid
[2] = measured here: lipid fluorescence (Fed channel) AC50, cells fed with added oleic acid

Row | SMILES | cell number change | AC50 [1] | AC50 [2]
1 | CCCn1c2ccccc2c2cnn(CC(=O)NCCCN3CCCC(C)C3)c(=O)c21 (configuration not stated) | 35.7% | 16.4 µM [rising, partial curve, poor fit] | –
2 | C=CCOc1ccc(/C=C2\C(=N)N3N=C(S(=O)(=O)CC)SC3=NC2=O)cc1OC | 25.4% | – | 0.00411 µM [rising, full curve, poor fit]
3 | CC(=O)NC(Cc1ccc(O)cc1)C(=O)NN (configuration not stated) | – | 2.59 µM [falling, partial curve] | –
4 | Cc1ccc(C(=O)Nc2nc(-c3ccc(F)cc3)cs2)o1 | -19.7% | – | –
5 | COc1c(C=O)cc2c3c1CCCN3CCC2 | 8.21% | – | 4.61 µM [rising, full curve]
6 | CSc1nnc(N2C(=O)C(O)=C(C(=O)c3ccc(C)o3)C2c2ccc(C)cc2)s1 (configuration not stated) | -0.85% | 0.651 µM [rising, single point] | –
7 | CCOC(=O)c1sc(NC(=O)c2cccc(S(=O)(=O)N3CCN(C)CC3)c2)cc1C | -37% | 32.6 µM [falling, single point] | 7.31 µM [falling, partial curve]
8 | COC(=O)c1ccc(/C=N/NC(=O)c2ccccc2Cl)cc1 | -5.47% | – | –
9 | CS(=O)(=O)c1ccc2nc(NC(=O)c3ccc(Cn4cc(Br)cn4)o3)sc2c1 | 8.59% | – | 2.06 µM [rising, partial curve]
10 | Cc1ccccc1C(=O)c1cccn1CC(=O)NCc1ccco1 | 14.4% | – | 4.61 µM [falling, single point]
11 | COc1ccc(-n2c(SC)nc(O)cc2=O)cc1 | -30.5% | 20.6 µM [falling, partial curve, poor fit] | –
12 | CCN1CCN(C(=O)CCNC(=O)Cn2cnc3ccccc3c2=O)CC1 | 3.75% | – | –
13 | Cn1nc(C(F)(F)F)cc1Oc1ncc(C(F)(F)F)cc1Cl | -38.6% | – | –
14 | O=C(C[n+]1ccccc1)c1ccc(NC(=O)c2ccccc2)cc1 | -0.671% | – | 8.2 µM [falling, partial curve]
15 | O=S(=O)(c1cccc(-c2nnco2)c1)N1CCCC1 | -27.1% | – | –
16 | Cc1nn(-c2ccccc2)c(C)c1NC(=O)COc1ccc([N+](=O)[O-])cc1 | – | – | 14.6 µM [rising, partial curve]
17 | N/C(=N\OC(=O)Cc1ccc(Cl)cc1)c1ccccn1 | 6% | – | 4.61 µM [rising, partial curve]
18 | C/C(CC(=O)NC(C)C)=N\NC(=O)COc1cc(C)c(Br)cc1Br | 16.7% | – | 2.91 µM [rising, full curve]
19 | CC(=O)NC(c1cc(Cl)c2cccnc2c1O)C(C)C (configuration not stated) | -38.6% | 29.1 µM [falling, single point] | 29.1 µM [falling, single point]
20 | CN1C(=O)CS(=O)c2ccc(C(=O)NC3CC3)cc21 (configuration not stated) | -5.52% | – | –
21 | Cc1ccc(S(=O)(=O)N2CCOCC2)cc1NC(=O)C1=NN(c2ccccc2)C(=O)CC1 | -17.8% | – | –

Row | SMILES | cell number change | AC50 [1] | AC50 [2]
22 | Cc1c(NC(=O)c2cc(=O)[nH]c(=O)[nH]2)c(=O)n(-c2ccccc2)n1C | 2.58% | – | –
23 | CCOc1ccc(C(=O)NCc2ccco2)cc1OC | – | – | 0.13 µM [falling, full curve, poor fit]
24 | O=C(NC(=S)NCCSc1ccccc1)c1cccnc1 | 10.1% | 1.46 µM [rising, partial curve, poor fit] | –
25 | Cc1cc(C)n(S(=O)(=O)c2ccc(F)cc2)n1 | 0.365% | – | 2.31 µM [rising, full curve]
26 | COc1ccc(/C=N/NC(=O)c2cccc(NC(C)=O)c2)c(C(=O)O)c1OC | 22.1% | 4.11 µM [rising, full curve, poor fit] | 4.11 µM [rising, full curve, poor fit]
27 | Cn1cc(P(=O)(N2CCOCC2)N2CCOCC2)cc1P(=S)(N1CCOCC1)N1CCOCC1 | – | – | 13 µM [rising, partial curve]
28 | O=c1[nH]c(-c2ccccc2Cl)nc2c1sc(=S)n2-c1ccccc1 | -22% | – | 3.66 µM [falling, full curve, poor fit]
29 | COc1ccccc1NC(=O)Nc1nc(CC(=O)N2CCN(c3ccc(F)cc3)CC2)cs1 | -19.8% | 1.16 µM [falling, full curve, poor fit] | –
30 | COc1ccc(S(=O)(=O)NCC2CCCN(C(=O)C3CCCC3)C2)cc1 (configuration not stated) | -1.09% | – | 0.411 µM [falling, single point]
31 | CCC(=O)Nc1ccccc1C(=O)OCC(=O)Nc1ccc(S(N)(=O)=O)cc1 | 0.607% | – | 0.651 µM [falling, single point]
32 | Cc1ccc(-n2c(Cl)c(Cl)nc(Cl)c2=O)cc1 | -66.6% | 13 µM [falling, partial curve] | 5.8 µM [falling, full curve]
33 | O=C(O)C1C2CC2CN1C(=O)c1ccc(Cl)cc1 (configuration not stated) | -13.8% | 3.66 µM [falling, single point] | –
34 | O=C(CN1CCCC1)NC1C2CC3CC(C2)CC1C3 (configuration not stated) | 22% | – | –
35 | O=C(Cn1c(=O)n(Cc2ccccc2)c(=O)c2cc(Cl)ccc21)NCC1CCCO1 (configuration not stated) | 6.31% | – | 6.51 µM [rising, single point]
36 | Cn1c(N)c(C(=O)COC(=O)CCc2nc3ccccc3s2)c(=O)n(C)c1=O | -112% | 29.1 µM [falling, single point] | –
37 | CC1=NN(C(=O)Cc2ccccc2)C(O)(c2cccnc2)C1 (configuration not stated) | – | – | 0.58 µM [rising, single point]
38 | C=CCn1c2ccccc2c2nnc(SCc3ccc4nonc4c3)nc21 | – | 0.651 µM [rising, single point] | 0.651 µM [rising, single point]
39 | COc1ccccc1C(=O)N/N=C(\C)CC(=O)Nc1ccc(Nc2ccccc2)cc1 | 17.9% | – | –
40 | CC[C@H](CO)Nc1nc(Nc2cccc(Cl)c2)c2ncn(C(C)C)c2n1 | -10.1% | – | 0.731 µM [rising, single point]
41 | CC1(C)NC(=O)N(CC(O)CN(Cc2ccccc2)Cc2ccccc2)C1=O (configuration not stated) | -114% | 20.6 µM [falling, single point] | 29.1 µM [falling, single point]

Part of the list above, as labelled records:
Cc1ccc(-n2c(Cl)c(Cl)nc(Cl)c2=O)cc1
  cell number change: -66.6%
  AC50 [1]: 13 µM [falling, partial curve]
  AC50 [2]: 5.8 µM [falling, full curve]
O=C(O)C1C2CC2CN1C(=O)c1ccc(Cl)cc1 (configuration not stated)
  cell number change: -13.8%
  AC50 [1]: 3.66 µM [falling, single point]
O=C(CN1CCCC1)NC1C2CC3CC(C2)CC1C3 (configuration not stated)
  cell number change: 22%
